# Laboratory results published in article PMC7478896, “EphrinB2-EphB4 signalling provides Rho-mediated homeostatic control of lymphatic endothelial cell junction integrity” (eLife, 2020).
# Chains of the proteins cited; added tags and fusions are not shown. Residues count along the entry.
# UniProt P52799, residues 28-229: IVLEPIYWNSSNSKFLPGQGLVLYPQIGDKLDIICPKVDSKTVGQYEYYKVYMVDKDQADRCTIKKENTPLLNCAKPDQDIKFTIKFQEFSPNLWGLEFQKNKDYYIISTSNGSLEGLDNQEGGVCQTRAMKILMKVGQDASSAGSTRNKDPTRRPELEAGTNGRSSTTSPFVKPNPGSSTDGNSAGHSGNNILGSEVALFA
# UniProt P54760, residues 16-987: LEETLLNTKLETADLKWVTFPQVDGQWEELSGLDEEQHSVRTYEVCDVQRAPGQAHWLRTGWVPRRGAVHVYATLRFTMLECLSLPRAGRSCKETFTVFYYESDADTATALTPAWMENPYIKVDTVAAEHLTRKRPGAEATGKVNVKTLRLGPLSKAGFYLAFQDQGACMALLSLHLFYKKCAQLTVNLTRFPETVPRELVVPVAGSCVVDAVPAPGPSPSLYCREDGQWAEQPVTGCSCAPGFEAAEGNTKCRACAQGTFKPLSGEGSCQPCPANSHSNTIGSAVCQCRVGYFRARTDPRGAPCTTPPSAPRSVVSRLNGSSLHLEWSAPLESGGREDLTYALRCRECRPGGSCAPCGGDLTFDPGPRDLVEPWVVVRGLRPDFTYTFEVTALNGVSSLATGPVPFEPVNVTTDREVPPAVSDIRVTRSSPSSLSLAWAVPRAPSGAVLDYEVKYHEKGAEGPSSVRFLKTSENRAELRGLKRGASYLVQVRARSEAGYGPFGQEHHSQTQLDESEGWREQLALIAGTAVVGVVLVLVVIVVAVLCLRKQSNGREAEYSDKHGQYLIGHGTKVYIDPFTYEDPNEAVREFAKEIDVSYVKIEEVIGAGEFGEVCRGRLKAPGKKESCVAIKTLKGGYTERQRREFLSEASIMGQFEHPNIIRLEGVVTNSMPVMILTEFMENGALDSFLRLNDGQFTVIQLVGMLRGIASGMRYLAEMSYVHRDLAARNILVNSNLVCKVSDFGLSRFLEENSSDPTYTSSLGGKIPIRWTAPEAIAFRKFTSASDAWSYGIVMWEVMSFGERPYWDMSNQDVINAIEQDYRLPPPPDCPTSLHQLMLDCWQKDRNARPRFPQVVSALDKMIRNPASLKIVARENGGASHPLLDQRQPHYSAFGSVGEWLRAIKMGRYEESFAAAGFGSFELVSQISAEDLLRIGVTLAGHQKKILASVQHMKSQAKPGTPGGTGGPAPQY
# Results are given in words; binding and its absence hold for the method and conditions named. Binding seen in cells or lysates may run through a third protein. Some results given as binding are weak or reduced against the parent protein; the word gives no strength.
# Target: recombinant human EphrinB2-Fc (human) (UniProt P52799)
# Assay: pull-down; 3 μg human EphrinB2-Fc and 30 µl Protein G-Sepharose incubated with HDLEC lysate for 3 hr at 4°C; lysis buffer 20 mM Tris-HCl pH 7.4, 150 mM NaCl, 2 mM CaCl2, 1 mM Na3VO4, 1% Triton X-100; washed five times; blot for EphB4 and phosphotyrosine (4G10); cells treated with control or EFNB2 siRNA and stimulated with pre-clustered EphrinB2-Fc or control Fc; only the target purified
substance,measurement,value
EphB4 (from UniProt P54760 16-987) (receptor),binding,binds
